The list shows a part of the results.

The chains behind the UniProt entries cited, without tags or fusion partners.
UniProt Q0JBA9, entry or part of it: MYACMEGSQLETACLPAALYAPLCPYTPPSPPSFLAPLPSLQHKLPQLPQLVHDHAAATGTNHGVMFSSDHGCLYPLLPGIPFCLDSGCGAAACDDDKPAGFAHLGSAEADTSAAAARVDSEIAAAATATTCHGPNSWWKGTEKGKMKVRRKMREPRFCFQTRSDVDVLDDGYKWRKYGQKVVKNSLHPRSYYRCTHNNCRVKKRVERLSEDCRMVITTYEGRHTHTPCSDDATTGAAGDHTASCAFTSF

Among the data in publication PMC7819943, “Rice protein-binding microarrays: a tool to detect cis-acting elements near promoter regions in rice” are binding signal values, retold here.

This experiment concerns the target OsWRKY34 (Oryza sativa, UniProt Q0JBA9 1-250). The experiment can be described thus: protein-binding microarray (RPBM); PBS, 2% BSA, 51.3 ng/ul salmon testes DNA, 50 uM zinc acetate, 200 nM TF, 25 C, 1 h; high values mean tight binding. The following applies: protein: recombinant; tags: N-terminal polyhistidine and DsRed monomer fusion (pET32a); label: CyDye5-dUTP incorporated in the synthesized complementary strand; 3' TTTTT single-stranded linker to array surface; dsDNA, one strand shown. In short, it runs like this: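 The binding signal is fluorescence intensity per array feature (arbitrary units). Readings came from an Axon 4000B scanner after a washed, 2% BSA-blocked, double-stranded custom Agilent array had been incubated for 1 h at 25 °C with 200 nM protein and 50 µM zinc acetate. The protein was a Ni–NTA-purified transcription factor fused N-terminally to polyhistidine and DsRed, expressed in E. coli BL21-CodonPlus.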
As to “TGTGGTTCTATTGCTTTCGTGCGTTTGGTGATCCATGCTACGGAGTCACCTAGTGCAG”, the binding signal was 11100 fluorescence intensity (a.u.).
With “TTGCGCCCGGCCACCACCGCCTGCCGCCTTGCTGCCAGCCCGGAGTCACCTAGTGCAG” the figure was 9640 fluorescence intensity (a.u.); with “CTTTCTCCTTTCTCTCCACTTTTTACGGATCTGGTGCTCCCGGAGTCACCTAGTGCAG”, 8270 fluorescence intensity (a.u.); with “GACATTTTGACCTTGAGCTCTAGTCTCAACACCGTTAACTCGGAGTCACCTAGTGCAG”, 8890 fluorescence intensity (a.u.).
With “GGGCTGCATATTTGAGGGGAGGGCGTGAGGCGGCTGTTTGCGGAGTCACCTAGTGCAG”, the binding signal is 12200 fluorescence intensity (a.u.).
With “TATAGCTGGTTCTTGCATGTACTTACCTCATACTATTTGACGGAGTCACCTAGTGCAG” the figure was 11700 fluorescence intensity (a.u.); with “TCCTCCTCCGATTGGGTTGGGGATTTCTGCTTCTGTTCGACGGAGTCACCTAGTGCAG”, 10900 fluorescence intensity (a.u.).
The same measure for “GCGGGCAGTGGGCGCGAGATCTCATCCGAGTGGGTGGGCGCGGAGTCACCTAGTGCAG”: 8060 fluorescence intensity (a.u.); for “AAAGCCACTCTTCTCCTTTGAACATTCTTCTCCTTTTCTTCGGAGTCACCTAGTGCAG”: 8880 fluorescence intensity (a.u.).
With “TCTCGCTCCCTCCATTCCGACGTCTCATTCTCTCTCCACACGGAGTCACCTAGTGCAG” the figure was 10500 fluorescence intensity (a.u.).
In the case of “GAGAATACTTTTATTCTTTTACTCTTAGCCGTTTAATTGCCGGAGTCACCTAGTGCAG”, the binding signal was 8030 fluorescence intensity (a.u.).
“TCCCGCTCACCACCACGCCACGTCACCGATCCGCGCAACCCGGAGTCACCTAGTGCAG”: the binding signal is 9510 fluorescence intensity (a.u.).
As to “GTGTCTGAATTCTCGTCCACCTTTTGCAACAGGCAAGTATCGGAGTCACCTAGTGCAG”, the binding signal is 8180 fluorescence intensity (a.u.).
Turning to “GTCTCAATCACCACGTGCTCTTCCATCCTCCATAAATACTCGGAGTCACCTAGTGCAG”, the binding signal is 8320 fluorescence intensity (a.u.).
The same measure for “AATTTAATGCATGACCTTCTATTCTTCCACACGAGATTGACGGAGTCACCTAGTGCAG”: 8280 fluorescence intensity (a.u.); for “TTCTTCCTCACGCCTCTGAATTCAGTTGGATCTCCGGCAACGGAGTCACCTAGTGCAG”: 9550 fluorescence intensity (a.u.); for “AACCCTAACCCGCGCGCTCGCCTCCTCCTCCTCAGCCATGCGGAGTCACCTAGTGCAG”: 8490 fluorescence intensity (a.u.).
With “CATTTTGCCGCCATTGACCTCGCCGTCGCCATGAACATCTCGGAGTCACCTAGTGCAG” the figure was 8490 fluorescence intensity (a.u.); with “TACTTCGCATTCAGTTTCAGTTTCAGAGAAGAGACAGCTTCGGAGTCACCTAGTGCAG”, 8500 fluorescence intensity (a.u.).
With “CGCTCCATCCAACTCATCACACACACGACACAGCACACCGCGGAGTCACCTAGTGCAG” the figure was 8250 fluorescence intensity (a.u.); with “TGTCTGGTTTGACTTGGTCCTCATCCCACTGGACATTGACCGGAGTCACCTAGTGCAG”, 10000 fluorescence intensity (a.u.); with “CTTCCTAAAGTCTTGTTTTTCGTCTTCAAGTCATCGTTATCGGAGTCACCTAGTGCAG”, 10200 fluorescence intensity (a.u.).
Regarding “ATTACGCCAATATGCGTGCCTCCTCTTCGCGTTCTCTCTCCGGAGTCACCTAGTGCAG”, the binding signal is 8360 fluorescence intensity (a.u.).
The same measure for “GCTAATCGCTACTCCGTTTTCCGTGCGGGCACTTAGTGTTCGGAGTCACCTAGTGCAG”: 8120 fluorescence intensity (a.u.); for “CTTTTTATTCATTCATGCTCTCTACTTTTAACAATTAACACGGAGTCACCTAGTGCAG”: 9320 fluorescence intensity (a.u.).
The same measure for “TTTTTACAAGCAACATCCCGACCTGGACGCACATAGCTACCGGAGTCACCTAGTGCAG”: 8560 fluorescence intensity (a.u.); for “TGGAGGGAGTAATTAACTGTTGTTTGTTTGTCAGCTTCTACGGAGTCACCTAGTGCAG”: 8910 fluorescence intensity (a.u.).
With “CTCTCTCTCTCTCTCTCTCTTCTTTCTCTCTCTTGCTGCCCGGAGTCACCTAGTGCAG” the figure was 9280 fluorescence intensity (a.u.); with “TTCTTTTGGCATGGTGATGACATGTTTGTTGCTGCTGACGCGGAGTCACCTAGTGCAG”, 9490 fluorescence intensity (a.u.); with “AAACACTGATTTTCGTGTCTAATGTTTGACCGTCCATCTTCGGAGTCACCTAGTGCAG”, 8940 fluorescence intensity (a.u.).
As for “TGTCCTGGGATGTTGGGAGTTATGCTTGCGTTAAATCTGACGGAGTCACCTAGTGCAG”, the binding signal is 8810 fluorescence intensity (a.u.).
With “GCGCTCGACCACCCGCGCGCACCGGCGAAACATACGGCGCCGGAGTCACCTAGTGCAG” the figure was 9210 fluorescence intensity (a.u.); with “GTTGTATTGATGATTCTTTCTCCCTTGATGTCGCTGAACTCGGAGTCACCTAGTGCAG”, 9040 fluorescence intensity (a.u.).
With “TGAGGCCCTTAGCCTTATTATGGGATGGGGTGTCTAGATACGGAGTCACCTAGTGCAG” the figure was 8380 fluorescence intensity (a.u.); with “GGATGCTTTTATCTGTGCACTAATGATTCATAGTTTCAATCGGAGTCACCTAGTGCAG”, 9120 fluorescence intensity (a.u.); with “TGCAATCTACCAATACTATTGTTCACTGTACCACCCTTATCGGAGTCACCTAGTGCAG”, 9050 fluorescence intensity (a.u.).
With “ATTCATTCACTCGTCGACTTTTCGTCGTCCTCCGCGACGACGGAGTCACCTAGTGCAG” the figure was 11600 fluorescence intensity (a.u.).
With “CCACCGCCACCGCCGCGTCGTCCTCTTCCACCAACACCTCCGGAGTCACCTAGTGCAG”, the binding signal is 12100 fluorescence intensity (a.u.).
With “CCTATAAATGTTTCTGTAGTTATCTAGATTAGAATTTTCTCGGAGTCACCTAGTGCAG” the figure was 8520 fluorescence intensity (a.u.); with “GCTGGCTCGATAGCTCGCTATCTCACACTTCGTCGCCGGCCGGAGTCACCTAGTGCAG”, 8550 fluorescence intensity (a.u.); with “TGCACTTGATTAGTACAGGAGTTAACTGCATCTACGACTCCGGAGTCACCTAGTGCAG”, 8600 fluorescence intensity (a.u.).
With “ATGCTCGCTGATCAGATGGTATGCCTACTCTTAACCACTACGGAGTCACCTAGTGCAG” the figure was 8020 fluorescence intensity (a.u.).
